# Assay results reported in the supplement of paper PMC8326762, “A Small Molecule Inhibitor of Pex3–Pex19 Interaction Disrupts Glycosome Biogenesis and Causes Lethality in Trypanosoma brucei” (Frontiers in Cell and Developmental Biology, 2021).
# Where a name gives a salt, the structure may show the parent alone. Some of the results follow. The data scatter; read single values as rough.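 Optical density at 600 nm measured yeast growth. Because the two-hybrid strains grew without histidine, growth required Pex3–Pex19 binding. Trypanosome selectivity meant a compound inhibited the trypanosome-pair strain's growth by more than 65% but the human-pair strain's by less than 65%.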
# Tested on: T. brucei Pex3-Pex19 interaction (yeast two-hybrid)
# Experiment: growth inhibition of yeast two-hybrid strain reporting TbPex3-TbPex19 interaction, relative to DMSO; higher = stronger inhibition of T. brucei Pex3-Pex19 interaction / growth
# Conditions: 100 µM; 24 h
row,Structure (SMILES),growth inhibition [%]
1,Cc1ccccc1/C=C/C1=NCCN1 [Metrazoline oxalate],67.4
2,CC(C)(Oc1ccc(CCNC(=O)c2ccc(Cl)cc2)cc1)C(=O)O [Bezafibrate],49
3,N[C@@H](Cc1ccc(O)c(I)c1)C(=O)O [3-Iodo-L-tyrosine],71.6
4,CCC(=O)c1ccc2c(c1)N(CCCN(C)C)c1ccccc1S2 [Propionylpromazine hydrochloride],53.8
5,OCC1OC(n2cnc3c(NC4CCCCC4)ncnc32)C(O)C1O (stereo not given) [N6-Cyclohexyladenosine],54
6,O=C(c1ccc(OCCN2CCCCC2)cc1)c1c(-c2ccc(O)cc2)sc2cc(O)ccc12 [Raloxifene hydrochloride],56.5
7,CN1CCN(CCCN2c3ccccc3Sc3ccc(C(F)(F)F)cc32)CC1 [Trifluoperazine dihydrochloride],51
8,CN1CCc2ccccc2Cc2[nH]c3ccccc3c2CC1,70.1
9,O=C(O)C1=CC(=C(c2ccc(O)c(C(=O)O)c2)c2ccc(O)c(C(=O)O)c2)C=CC1=O [Aurintricarboxylic acid],61.2
10,CCCN(CCC)CCc1cccc2c1CC(=O)N2 [Ropinirole hydrochloride],53
11,O=C1CCc2cc(OCCCCc3nnnn3C3CCCCC3)ccc2N1 [Cilostazol],50.9
12,"Nc1ncnc2c1ncn2[C@@H]1O[C@H](COP(=O)(O)OP(=O)(O)OP(=O)(O)OP(=O)(O)OC[C@@H]2O[C@H](n3cnc4c(N)ncnc43)C(O)[C@@H]2O)[C@H](O)C1O (stereo not given in full) [P1,P4-Di(adenosine-5')tetraphosphate triammonium]",53.9
13,CCN1CCC[C@H]1CNC(=O)c1c(O)c(Cl)cc(Cl)c1OC [S(+)-Raclopride L-tartrate],66.4
14,CC1COc2c(N3CCN(C)CC3)c(F)cc3c(=O)c(C(=O)O)cn1c23 (stereo not given) [Ofloxacin],70.5
15,NNc1nncc2ccccc12 [Hydralazine hydrochloride],62
16,CC[n+]1c(/C=C/C=C2/N(C)c3ccccc3C2(C)C)sc2ccccc21,74.6
17,"CC(C)NCC(O)c1ccc(O)c(O)c1 (single isomer, unassigned; (-)) [(-)-Isoproterenol hydrochloride]",68.8
18,CC(C)(NS(=O)(=O)c1ccc(Oc2ccc(F)cc2)cc1)C(=O)NO,52.5

row,Structure (SMILES),growth inhibition [%]
1,O=C(O)CCCCCCCC(=O)O [Azelaic acid],49.4
2,Nc1ccc(S(=O)(=O)Nc2ccnn2-c2ccccc2)cc1 [Sulfaphenazole],66.6
3,CCCCCCCC/C=C\CCCCCCCC(=O)NCCO [N-Oleoylethanolamine],57.4
4,CCC(NC(C)C)C(O)c1ccc(O)c(O)c1 (stereo not given) [Isotharine mesylate],55.1
5,CC(C)NCC(O)COc1ccc(COCCOC(C)C)cc1 (stereo not given) [Bisoprolol hemifumarate salt],34
6,"Nc1ncnc2c1ncn2[C@@H]1O[C@@H]2COP(=O)(O)O[C@H]2[C@H]1O [Adenosine 3',5'-cyclic monophosphate]",33.9
7,CC(N)C(=O)OC(C)(C)Cc1ccc(Cl)cc1 (stereo not given) [Alaproclate hydrochloride],59
8,CC(=O)[C@]1(O)Cc2c(O)c3c(c(O)c2[C@@H](O[C@H]2C[C@H](N)[C@H](O)[C@H](C)O2)C1)C(=O)c1ccccc1C3=O [Idarubicin],78.4
9,CC1=Nc2ccc(Cl)cc2S(=O)(=O)N1 [Diazoxide],35.2
10,Oc1ccc(C2CNCCc3c2cc(O)c(O)c3Cl)cc1 (stereo not given) [Fenoldopam bromide],32.5
11,CCCN[C@H]1CCc2nc(N)sc2C1 [Pramipexole dihydrochloride],59.9
12,NCCc1c[nH]cn1 [Histamine dihydrochloride],65.2
13,C[C@]12CCC(=O)C=C1CC[C@@H]1[C@@H]2CC[C@@]2(C)[C@H]1CC[C@]2(O)C(=O)CO [Cortexolone],46.5
14,"CN(C)C(N)=NCCC[C@H](N)C(=O)O [N^G,N^G-Dimethylarginine hydrochloride]",57.9
15,O=C(O)c1cc(=O)c2ccccc2[nH]1 [Kynurenic acid],47.7
16,CNC(=O)[C@H]1O[C@@H](n2cnc3c(NCc4cccc(I)c4)nc(Cl)nc32)[C@H](O)[C@@H]1O [Chloro-IB-MECA],23.9
17,C[C@]12CC[C@@H]3c4ccc(O)cc4C[C@@H](CCCCCCCCC[S+]([O-])CCCC(F)(F)C(F)(F)F)[C@H]3[C@@H]1CC[C@@H]2O (stereo not given in full) [Fulvestrant],56.6

# Three structures already listed, sorted by count of non-hydrogen atoms, descending:
row,Structure (SMILES),growth inhibition [%]
5,CC(C)NCC(O)COc1ccc(COCCOC(C)C)cc1 (stereo not given) [Bisoprolol hemifumarate salt],34
10,Oc1ccc(C2CNCCc3c2cc(O)c(O)c3Cl)cc1 (stereo not given) [Fenoldopam bromide],32.5
7,CC(N)C(=O)OC(C)(C)Cc1ccc(Cl)cc1 (stereo not given) [Alaproclate hydrochloride],59
